Taken from: PubChem BioAssay AID504774 (Drosophila RNAi Screening Center, 2011)
The screen tested about 23,000 reagents; this is a random part of those with a known target gene and a result. 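Values are quantile-normalised luminescence on an arbitrary scale; higher means more cells surviving MMS.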 Names joined by + are all predicted targets of the reagent.

- Purpose: 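Knock-downs that shift viability of MMS-exposed cells relative to untreated ones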 (primary screen)
- Cells: Drosophila Kc167 cells
- Reagent: long dsRNA against Drosophila genes, about 0.25 µg dsRNA per well
- Timing: about 6 days: 3 days knock-down, then 3 days with or without MMS
- Challenge: methyl methanesulphonate 0.004% (w/v) for 3 days after knock-down
- Detection: 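Viability in wells given MMS, read as ATP luminescence, normalised by quantiles plate by plate and averaged across replicates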
- Reading the numbers: mean viability with MMS and viability with MMS: higher = more surviving cells after MMS

gene knocked down,amplicon,mean viability with MMS,"viability with MMS, replicate 1","viability with MMS, replicate 2"
Ste:CG33238 + Ste:CG33241 + Ste:CG33236 + 11 more,DRSC19004,3.57e6,4.11e6,3.97e6
Ste:CG33238 + Ste:CG33241 + Ste:CG33236 + 11 more,DRSC21260,3.52e6,3.98e6,4.01e6
CG32603,DRSC19409,3.62e6,3.97e6,4.23e6
CG32603,DRSC21586,3.64e6,4.08e6,4.15e6
CG5592,DRSC10524,3.38e6,3.87e6,3.75e6
Csl4,DRSC02944,3.51e6,4.00e6,3.97e6
Csl4,DRSC22664,3.38e6,3.86e6,3.94e6
Ir94b (Ionotropic receptor 94b),DRSC21439,3.51e6,3.94e6,4.06e6
Bet1 (Blocked early in transport 1),DRSC10088,3.42e6,3.88e6,3.84e6
CG15773,DRSC18079,3.57e6,4.24e6,3.87e6
asf1 (anti-silencing factor 1),DRSC11324,3.43e6,3.92e6,3.82e6
CG8298,DRSC07138,3.68e6,3.97e6,4.24e6
"Prosalpha6T (Proteasome alpha6 subunit, Testis-specific)",DRSC02873,3.52e6,4.03e6,3.95e6
CG32107,DRSC09221,3.58e6,4.19e6,3.91e6
ind (intermediate neuroblasts defective),DRSC11355,3.01e6,3.53e6,3.58e6
ind (intermediate neuroblasts defective),DRSC23095,3.51e6,3.93e6,4.07e6
DIP2 (DISCO Interacting Protein 2),DRSC08582,3.53e6,4.08e6,3.93e6
Pnn (Pinin),DRSC16415,3.52e6,4.02e6,3.98e6
CG6574,DRSC16070,3.46e6,3.97e6,3.91e6
Got2 (Glutamate oxaloacetate transaminase 2),DRSC00643,3.60e6,4.02e6,4.16e6
CG7506,DRSC10860,3.54e6,3.97e6,4.05e6
mxt (mextli),DRSC00551,3.38e6,3.75e6,3.79e6
vir-1 (virus-induced RNA 1),DRSC02501,3.56e6,4.05e6,4.04e6
vir-1 (virus-induced RNA 1),DRSC02863,3.36e6,3.75e6,3.83e6
Marf1 (Meiosis regulator and mRNA stability factor 1),DRSC03747,3.66e6,4.17e6,4.12e6
Marf1 (Meiosis regulator and mRNA stability factor 1),DRSC03774,3.45e6,4.02e6,3.82e6
BORCS7 + CG13430,DRSC06392,3.60e6,4.12e6,4.05e6
BORCS7 + CG13430,DRSC06707,3.40e6,3.72e6,4.00e6

Laid out differently: entries from further up.
gene knocked down | amplicon | mean viability with MMS | viability with MMS, replicate 1 | viability with MMS, replicate 2
CG8298 | DRSC07138 | 3.68e6 | 3.97e6 | 4.24e6
Prosalpha6T (Proteasome alpha6 subunit, Testis-specific) | DRSC02873 | 3.52e6 | 4.03e6 | 3.95e6
